From patent publication US6682740B1 (Yeda Research and Development Co. Ltd., priority 1997, dated 2004)

Key:
[1] = general procedure: Boc solid-phase peptide synthesis; MBHA resin (0.73 mmoles/g); DCC; Asn, Gln and Arg as HOBt esters; details: whole synthesis, HPLC and CZE, scale of the general procedure about 0.1 mmol
[2] = general procedure: Boc solid-phase peptide synthesis; methyl-benzhydrylamine resin; DCC; Asn, Gln and Arg as HOBt esters; details: whole synthesis, scale about 0.1 mmol

CNYITELRRQHARASHLGLAR
final HPLC purity [1]: more than 96%
crude mass [2]: 190 mg

End groups of sequences in plain letters are not given here.
